Measured values from patent publication US5773412A, “Use of peptides for altering αV β3 -mediated binding” (priority 1995, dated 1998).
Part of at least one peptide drawing is inferred or uncertain, most often the ends. Where a SMILES comes first, the peptide text is derived from it. Bridges are numbered along the chain shown (N, C = ends). [ ]: non-standard residue; d: D form. The star is where a group is joined. Benzenesulfonyl = O=S(=O)(c1ccccc1)*; Tle = CC(C)(C)[C@H](N)C(=O)O; Dap = NC[C@H](N)C(=O)O; Mpa = O=C(O)CCS

Experiments:
αv β3 receptor = biological target: T1, αv β3 receptor (Homo sapiens, UniProt P05106+P06756); test: αvβ3 competitive ELISA; assay type: binding; conditions: in words
T1 construct: The αv β3 receptor was purified from octylglucopyranoside-extracted human placenta; from tissue; host or cells: human placenta
Method: Peptide binding to purified human αv β5 and αv β3, which are VnR's, and to α5 β1 which is a FnR, was determined using competitive ELISA assays as described below.
Peptide binding to purified αv β3 receptor was determined by using a competitive ELISA, in which αv β3 receptor was immobilized and the binding of solubilized VN, in the presence of various concentrations of peptide analogue, was detected using a monoclonal mouse IgG anti-VN antibody and a labelled anti-mouse IgG conjugate.
96 well microtiter plates were coated overnight at RT with 100 μl/well of αv β3 receptor (0.5 μg/ml in 1X TBS, 4 mM octylglucoside, 1 mM CaCl2). The wells were blocked with 200 μl/well of 1% BSA in 1X TBS, 1 mM CaCl2 for at least 30 min. The plates were washed 2× with 1X TBS, 1 mM CaCl2. 50 μl peptide in 1X TBS, 1 mM CaCl2, 0.05% TWEEN 20 (polyoxyethylenesorbitan monolaurate) was added in 10-fold serial dilutions. 50 μl of Vn in the same buffer then was added to each well.
The plates were incubated for 3 hr at RT, then washed 3× with 1X TBS, 0.05% TWEEN 20 (polyoxyethylenesorbitan monolaurate). 100 μl of 8E6 (Telios) diluted to 1:6000 in 1X TBS, 0.05% TWEEN 20 (polyoxyethylenesorbitan monolaurate) was added to the wells and the plates were incubated for 1 hr at RT. Plates were washed 3× with 1X TBS, 0.05% TWEEN 20 (polyoxyethylenesorbitan monolaurate). Affinity purified goat anti-mouse IgG conjugated to horseradish peroxidase (100μl/well; BioRad; Hercules Calif.) was added to each well and incubated for 1 hr at RT. Plates were washed 3× with 1X TBS, 0.05% TWEEN 20 (polyoxyethylenesorbitan monolaurate). 100 μl/well of substrate mixture (10 mg O-phenylenediamine in 25 ml 0.1M citrate-phosphate buffer, pH 5.0, 6 μl 30% H2 O2) was added to the plates and allowed to develop. The development process was stopped by adding 50 μl to 4N H2 SO4 to each well. The plates were read at 490 nm and the data analyzed by four parameter fit.

[1] = biological target: T2, platelet αIIb β3 integrin receptor (Homo sapiens, UniProt P05106+P08514); test: Platelet aggregation assay (ADP-induced, platelet-rich plasma); assay type: cell-based; conditions: in words
T2 construct: Platelet-rich plasma (PRP) was prepared fresh from heparinized whole blood; endogenous in cells; host or cells: platelets in platelet-rich plasma from heparinized whole blood

Q: What does the source list for `CC(C)(C)[C@@H]1NC(=O)[C@H](CNS(=O)(=O)c2ccccc2)NC(=O)[C@H](CC(=O)O)NC(=O)CNC(=O)[C@H](CCCNC(=N)N)NC(=O)CCSSC[C@@H](C(N)=O)NC1=O` [compound 754] ([Mpa]RGD[Dap](Benzenesulfonyl)[Tle]C-NH2; disulfide 1-7)?
A: potency for binding αv β3 (αv β3 receptor): relatively potent; inhibition of platelet aggregation [1]: particularly effective in inhibiting platelet aggregation
